From US20240350491A1, “METHODS AND COMPOSITIONS FOR IMMUNE CONTROL THROUGH DICKKOPF-1” (Baylor College of Medicine, priority 2021, published 2024)
At least one compound was matched to its structure with a doubt left.

System: C57BL/6 mice
Experiment: Eosinophilic steroid-resistant AAD model (A. niger), dexamethasone
Type: in vivo
Conditions: A. niger conidia q.o.d. over 28 days; Dex daily

**Q.** Which results are given for `C[C@@H]1C[C@H]2[C@@H]3CCC4=CC(=O)C=C[C@]4(C)[C@@]3(F)[C@@H](O)C[C@]2(C)[C@@]1(O)C(=O)CO` [dexamethasone]?
**A.** airway hyperresponsiveness: fails to reduce; level of some inflammatory cells: reductions
